From PMC5050335
Tags and fusion partners may be left off the protein sequences shown.

Molecular target: T1, Cap0037 (Clostridium acetobutylicum ATCC 824) (UniProt Q97TR1)
T1 sequence (looked up): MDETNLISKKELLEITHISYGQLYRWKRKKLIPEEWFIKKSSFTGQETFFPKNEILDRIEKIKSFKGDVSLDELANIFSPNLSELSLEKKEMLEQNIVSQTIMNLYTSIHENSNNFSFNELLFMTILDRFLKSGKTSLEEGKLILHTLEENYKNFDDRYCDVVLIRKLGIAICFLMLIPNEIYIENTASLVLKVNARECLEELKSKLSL
Assay: EMSA
Conditions: poly(dI-dC), EMSA: 20 ul with 2 ul buffer (stock 200 mM Tris, 500 mM Na glutamate, 100 mM MgCl2, 63.6 mM EDTA, 0.5% NP-40, 50% glycerol), 1 ug poly(dI-dC), 20 min room temperature, recombinant protein, residues 1-209, protein details: C-terminal His tag (pET29a(+)), probe letters rebuilt from the primers and the genome

Row | Sequence | binding result (0-0.9 ug protein) | binding result (0-0.6 ug protein)
1 | GCCAACATTGCCTATAAGAGACACTATATCGCCTGAATTCATAAAAACACCTCCACATAAGTTTATATAAATCTATTATGCAGAATTTTTAGGAAGTGTACTTTTATTTTCGAAAGCTAGTAGAAAAAATTAATATATGGTGTAAAAATTTACTTAAAAAAACAATATGTGTTATAATGTAAATATAAATAAATAGGACTAGAGGCGATTTATAATGTGAAGATAAAGTATGTTAGAAAAGCTAAACATTATTAAATTTAGGAAGGTGACTTTTATGTTAAAGGATGAAGTAATTAAACAAATTAGCACGCCATTAAC (double strand) [adc probe (EMSA)] | binds | –
2 | GGCAAGCTCATCTAATGATACATCCCCCTTAAAGCTCTTAATTTTTTCAATTCTATCTAAGATTTCATTTTTAGGGAAAAAGGTCTCCTGCCCAGTAAAGCTGGATTTCTTTATGAACCATTCCTCAGGTATAAGTTTCTTTCTCTTCCATCTATACAGCTGACCATAAGAAATATGAGTTATCTCAAGAAGTTCTTTTTTAGAAATTAAATTAGTTTCATCCATATAGCTATTCCTCCAGTTATTCTCTTCATGAATACAATATAACATAACATTGTTACGTTTGCAATAGGAAAGTTTTATTTCACACAAAAAACAGCTAAAATATAAATTTAGCTTGTTTCGAACTATAGATAAGGAGTGTTAATATTTATATGAAAATATACATTATCTTAAAATTGATGTTATAATATAGAGCATATATTAACTATAATCCACTACATAAGTGTAATTTATTATATAAAGATAATATTGGAGGAAAAAGATTGTGTTTATTTTATTATTAAAATACATAAAACCCGTTGAGGAAGTTGATAAAG (double strand) [CAP0037 probe (CA_P0037-CA_P0036 promoter, EMSA)] | – | binds
